# In patent US20070249013 (published 2007):
# Assay: general procedure: Fmoc solid-phase peptide synthesis; Rink-NHFmoc resin (0.6 mmol/g); DIC/HOBt
# Settings: whole synthesis; for crude HPLC purity: λ=288 nm
Substance,crude yield,crude HPLC purity
H2N—CO-Phe-Lys-Gly-Orn-Bodipy,Yield=53%,HPLC 86%
H2N—CO-Phe-Lys-Gly-Orn-Lissamine,Yield=53%,HPLC 83%
H2N—CO-Phe-Lys-Gly-Orn-NHFmoc,Yield=78%,HPLC 97%
